{
  "source": "paper PMC8224235",
  "target": "T1, Ume6-MYC (Ume6 with a carboxyl-terminal 13×MYC tag) (S. cerevisiae) (UniProt P39001)",
  "T1 sequence": "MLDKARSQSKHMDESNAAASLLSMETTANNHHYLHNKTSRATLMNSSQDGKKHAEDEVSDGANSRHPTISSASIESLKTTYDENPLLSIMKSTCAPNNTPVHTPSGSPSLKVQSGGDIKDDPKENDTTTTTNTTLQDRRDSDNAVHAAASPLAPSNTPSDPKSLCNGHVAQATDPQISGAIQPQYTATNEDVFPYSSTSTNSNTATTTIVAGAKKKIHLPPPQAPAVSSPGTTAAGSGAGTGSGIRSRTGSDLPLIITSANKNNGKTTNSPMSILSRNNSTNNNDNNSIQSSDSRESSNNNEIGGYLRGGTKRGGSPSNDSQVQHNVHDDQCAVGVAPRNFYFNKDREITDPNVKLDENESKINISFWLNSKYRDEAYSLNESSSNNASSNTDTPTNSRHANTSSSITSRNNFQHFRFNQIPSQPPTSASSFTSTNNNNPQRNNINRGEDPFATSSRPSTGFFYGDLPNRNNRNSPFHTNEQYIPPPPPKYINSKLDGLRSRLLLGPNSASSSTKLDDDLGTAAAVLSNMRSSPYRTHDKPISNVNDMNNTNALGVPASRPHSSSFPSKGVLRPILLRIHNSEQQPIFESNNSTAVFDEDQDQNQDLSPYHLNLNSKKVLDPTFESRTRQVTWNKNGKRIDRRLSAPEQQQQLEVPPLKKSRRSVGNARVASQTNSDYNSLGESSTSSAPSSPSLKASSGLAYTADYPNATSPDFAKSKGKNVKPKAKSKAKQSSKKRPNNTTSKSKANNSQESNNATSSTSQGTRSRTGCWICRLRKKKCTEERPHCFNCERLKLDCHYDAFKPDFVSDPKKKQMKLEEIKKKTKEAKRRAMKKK",
  "experiment": "sequential chromatin immunoprecipitation (ChIP re-ChIP); cells cross-linked with 10 mM dimethyl adipimidate, then 1% formaldehyde; chromatin sheared to 300-400 bp; Ume6-MYC precipitated with anti-MYC, eluted and reprecipitated with anti-HA (Ime1-HA or Rpd3-HA); read out by PCR of IME2 and SPO13 promoter DNA against TELVI; cells in YEPD, YPKAc or SPM (1 and 3.5 h)",
  "note": "Results are given in words; binding and its absence hold for the method and conditions named. Some results given as binding are weak or reduced against the parent protein; the word gives no strength. Tags and fused reporters may be left off the sequences shown.",
  "data": [
    {"binder": "Ime1-HA (Ime1 with a carboxyl-terminal 3×HA tag) (protein, UniProt P21190 1-360) MQADMHGKLHAALEDGFFLFPFEQQQQPNIYYDTTTDQEDRPCFSFGSTISPRSWHFEKSDKIASSQLQNLVHTQPIHLINPQILFNEEFLNLENIDSQPISKETKTTKDCTMATGPERGKKSSESTRSSSLSSLFSNDESASTFHSSFNNHDNFQKSNRNGDDIDISDTIKYETNTNAQKDIKIFQENFEFNEFPYTQDFYPYTTNYTYSKPTNIHESINSKNTDSYSQYQDQFPPHTDNIHSFNNRHYSNHKSTNCNYYNNTSNNNNASDNVYEADPFIDEPQVPSYYYPLEIAFDVEKSPPPSLQKLNSKELEFLKKLNSKLSRYAAAYSFSSSNDQDYYDKVRFQEISYKFSKTYS", "values": [
      {"measurement": "binding", "result": "binds"}
    ]},
    {"binder": "Rpd3-HA (Rpd3 with a carboxyl-terminal 3×HA tag) (protein, UniProt P32561 1-433) MVYEATPFDPITVKPSDKRRVAYFYDADVGNYAYGAGHPMKPHRIRMAHSLIMNYGLYKKMEIYRAKPATKQEMCQFHTDEYIDFLSRVTPDNLEMFKRESVKFNVGDDCPVFDGLYEYCSISGGGSMEGAARLNRGKCDVAVNYAGGLHHAKKSEASGFCYLNDIVLGIIELLRYHPRVLYIDIDVHHGDGVEEAFYTTDRVMTCSFHKYGEFFPGTGELRDIGVGAGKNYAVNVPLRDGIDDATYRSVFEPVIKKIMEWYQPSAVVLQCGGDSLSGDRLGCFNLSMEGHANCVNYVKSFGIPMMVVGGGGYTMRNVARTWCFETGLLNNVVLDKDLPYNEYYEYYGPDYKLSVRPSNMFNVNTPEYLDKVMTNIFANLENTKYAPSVQLNHTPRDAEDLGDVEEDSAEAKDTKGGSQYARDLHVEHDNEFY", "values": [
      {"measurement": "binding", "result": "binds"}
    ]}
  ]
}
